In paper PMC8037668:

Tests used:
Experiment in all cases: two-hybrid; ZmFLZ25 against the 14 Arabidopsis ABA receptors in yeast; bait and prey not stated for this experiment
PYL4 (Arabidopsis) = molecular target: T1, PYL4 (Arabidopsis) (UniProt O80920)
T1 sequence: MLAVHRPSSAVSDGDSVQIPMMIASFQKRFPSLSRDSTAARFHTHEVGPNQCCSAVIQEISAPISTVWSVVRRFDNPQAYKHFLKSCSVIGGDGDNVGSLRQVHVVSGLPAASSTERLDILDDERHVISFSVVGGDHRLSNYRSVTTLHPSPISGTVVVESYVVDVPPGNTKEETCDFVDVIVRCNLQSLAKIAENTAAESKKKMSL

PYL12 (Arabidopsis) = molecular target: T2, PYL12 (Arabidopsis) (UniProt Q9FJ49)
T2 sequence: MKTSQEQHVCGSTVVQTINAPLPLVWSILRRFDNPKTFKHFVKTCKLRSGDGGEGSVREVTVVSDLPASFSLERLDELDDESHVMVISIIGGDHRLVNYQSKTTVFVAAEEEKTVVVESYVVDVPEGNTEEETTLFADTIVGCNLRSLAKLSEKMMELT

PYL8 (Arabidopsis) = molecular target: T3, PYL8 (Arabidopsis) (UniProt Q9FGM1)
T3 sequence: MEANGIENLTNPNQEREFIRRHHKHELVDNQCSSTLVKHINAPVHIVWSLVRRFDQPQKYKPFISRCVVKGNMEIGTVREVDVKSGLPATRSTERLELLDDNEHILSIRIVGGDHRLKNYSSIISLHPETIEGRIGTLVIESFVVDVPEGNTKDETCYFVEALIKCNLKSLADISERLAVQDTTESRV

PYL13 (Arabidopsis) = molecular target: T4, PYL13 (Arabidopsis) (UniProt Q9SN51)
T4 sequence: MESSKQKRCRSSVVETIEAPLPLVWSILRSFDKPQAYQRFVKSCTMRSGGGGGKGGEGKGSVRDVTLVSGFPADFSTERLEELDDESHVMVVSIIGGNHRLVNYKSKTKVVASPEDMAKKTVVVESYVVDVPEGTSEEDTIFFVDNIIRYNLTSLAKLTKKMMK

Measured: binding

ZmFLZ25 (maize (Zea mays))
binds: PYL4 (Arabidopsis) | PYL12 (Arabidopsis) | PYL8 (Arabidopsis) | PYL13 (Arabidopsis)

No constants are given. Whether binding was seen depends on the method and setting. A result given as binding can be weak or reduced; the word gives no strength.
